The list is a part of this screen's results and no random one: it gathers tests that were run many times, whatever their T/C, doses with no T/C, and many T/C values between a quarter and a half above the control. Further doses and runs are listed elsewhere. T/C is the treated group as % of the vehicle group. Some entries give survivors of the animals treated and no T/C: the source files T/C as zero there, which appears to mark a toxic dose or a test without result, not a measured value. Some survivor counts are full or nearly so, which does not show that the dose was tolerated: survival well below the control is almost never listed, so the zero probably covers shortened survival too. Survivors were counted at the toxicity check, usually on the fifth day, unless a day is given; later deaths do not show. Schedules are NCI's codes, taken here to give the interval after Q, in days (D) or hours (H), and the number of doses after X. Some entries were tested several times; their values stand side by side, smallest first. Where survival is the endpoint, the PubChem record calls one and a half times the control and up active, and a quarter to a half above the control has no call in these data; cut-offs in other NCI protocols can differ. Some T/C values carry the count of animals alive at the toxicity check (mostly the fifth day); where none is given, no animal had died by that day.

In the assay the test system is BDF1 mice, P388 leukemia ip, median survival T/C. Put plainly: NCI In Vivo Anticancer Drug Screen. Data for tumor model P388 Leukemia (intraperitoneal) in B6D2F1 (BDF1) mice. Conditions: T/C endpoint: median survival time, higher T/C = longer survival. The method in brief: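 Vehicle-dosed animals serve as the reference; survival of compound-dosed, tumour-implanted mice is divided by it.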

The mark [1] stands for this setting: dose: 12.5 mg/kg/injection, schedule: Q01DX009 (ip), vehicle: water.
[2] abbreviates: dose: 200.0 mg/kg/injection, schedule: Q04DX003 (ip), vehicle: saline.
Where [3] appears, read: dose: 8.0 mg/kg/injection, schedule: Q01DX009 (ip), vehicle: saline.
Where [4] appears, read: dose: 50.0 mg/kg/injection, schedule: Q01DX009 (ip), vehicle: saline with Tween-80.
Where [5] appears, read: dose: 100.0 mg/kg/injection, schedule: Q01DX009 (ip), vehicle: saline with Tween-80.
The mark [6] stands for this setting: dose: 200.0 mg/kg/injection, schedule: Q01DX009 (ip), vehicle: saline with Tween-80.
The mark [7] stands for this setting: dose: 100.0 mg/kg/injection, schedule: Q01DX009 (ip), vehicle: Klucel (hydroxypropylcellulose) (HPC).
Setting [8] is: dose: 400.0 mg/kg/injection, schedule: Q01DX009 (ip), vehicle: saline with Tween-80.
Setting [9] is: dose: 100.0 mg/kg/injection, schedule: Q04DX003 (ip), vehicle: Klucel (hydroxypropylcellulose) (HPC).
The mark [10] stands for this setting: dose: 25.0 mg/kg/injection, schedule: Q01DX010 (ip), vehicle: saline.
[11] abbreviates: dose: 50.0 mg/kg/injection, schedule: Q01DX010 (ip), vehicle: saline.
[12] abbreviates: dose: 100.0 mg/kg/injection, schedule: Q01DX010 (ip), vehicle: saline.
Setting [13] is: dose: 200.0 mg/kg/injection, schedule: Q01DX010 (ip), vehicle: saline.
Where [14] appears, read: dose: 400.0 mg/kg/injection, schedule: Q04DX003 (ip), vehicle: saline.
The mark [15] stands for this setting: dose: 100.0 mg/kg/injection, schedule: Q04DX003 (ip), vehicle: saline with Tween-80.

As to `COc1ccc(CNCCNCc2ccc(OC)cc2)cc1`, the survivor count by setting is: (dose: 50.0 mg/kg/injection, schedule: Q01DX009 (ip), vehicle: water) 6 of 6; (dose: 200.0 mg/kg/injection, schedule: Q01DX009 (ip), vehicle: water) 5 of 6; (dose: 200.0 mg/kg/injection, schedule: Q04DX003 (ip), vehicle: water) 6 of 6; (dose: 400.0 mg/kg/injection, schedule: Q04DX003 (ip), vehicle: water) 3 of 6.

On to `O=C1CN(CCl)C(=O)CN1CCl`, for which, under setting [1], the survivor count is recorded as 6 of 6.

On to `CC1(O)C=CC(=O)C=C1`, for which the T/C under setting [1] was 125 % of control. Further, the survivor count (dose: 100.0 mg/kg/injection, schedule: Q01DX009 (ip), vehicle: water) is given as 0 of 5.

As for `CS(=O)(=O)OCCCCCOS(C)(=O)=O`, the survivor count reads like this: (dose: 50.0 mg/kg/injection, schedule: Q01DX009 (ip), vehicle: saline) 2 of 6; (dose: 100.0 mg/kg/injection, schedule: Q04DX003 (ip), vehicle: saline) 0 of 6; under setting [2], 0 of 6.

For `O=C1OC(=O)C2C3C=CC(O3)C12` (configuration not stated), the survivor count by setting is: (dose: 6.25 mg/kg/injection, schedule: Q01DX009 (ip), vehicle: saline) 6 of 6; (dose: 55.0 mg/kg/injection, schedule: Q01DX009 (ip), vehicle: saline) 1 of 6; (dose: 80.0 mg/kg/injection, schedule: Q01DX009 (ip), vehicle: saline) 0 of 6.

As to `O=C(O)CCC(=O)CCl`, the T/C under setting [3] was 125 % of control; the T/C (dose: 8.25 mg/kg/injection, schedule: Q01DX009 (ip), vehicle: saline) is 127 % of control; the T/C (dose: 12.5 mg/kg/injection, schedule: Q01DX009 (ip), vehicle: saline with Tween-80) was 136 % of control; the T/C (dose: 12.5 mg/kg/injection, schedule: Q01DX009 (ip), vehicle: saline) is 127 % of control; the T/C (dose: 18.0 mg/kg/injection, schedule: Q01DX009 (ip), vehicle: saline) is 137 % of control; the T/C (dose: 18.75 mg/kg/injection, schedule: Q01DX009 (ip), vehicle: saline) was 136 % of control [5 of 6 alive]. Besides, the T/C (dose: 25.0 mg/kg/injection, schedule: Q01DX009 (ip), vehicle: saline with Tween-80) was 140 % of control. Moreover, the survivor count under setting [4] is listed as 3 of 6.

Consider `CCCCN(CCCC)CCC(O)c1cc(-c2ccc(C(F)(F)F)cc2)nc(C(F)(F)F)c1` (configuration not stated), for which the survivor count was 5 of 6 under setting [5] and 2 of 6 under setting [6].

Regarding `CCCCN(CCCC)CC(O)c1cc(-c2ccc(Cl)c(Cl)c2)cc2cc(Cl)ccc12` (configuration not stated), the survivor count is 6 of 6 under setting [5] and 6 of 6 under setting [6].

Turning to `C[C@@H]1C[C@H]2CC[C@H](O2)[C@H](C)C(=O)O[C@@H](C)C[C@@H]2CC[C@@H](O2)[C@@H](C)C(=O)O[C@H](C)C[C@H]2CC[C@H](O2)[C@H](C)C(=O)O[C@@H](C)C[C@@H]2CC[C@@H](O2)[C@@H](C)C(=O)O1`, the T/C under setting [6] is 136 % of control. Besides, under “dose: 400.0 mg/kg/injection, schedule: Q04DX003 (ip), vehicle: saline with Tween-80”, the survivor count is listed as 6 of 6.

Regarding `CC(=O)c1c(C)c([N+](=O)[O-])c(C(C)(C)C)c([N+](=O)[O-])c1C`, the survivor count (dose: 50.0 mg/kg/injection, schedule: Q01DX009 (ip), vehicle: Klucel (hydroxypropylcellulose) (HPC)) is reported as 3 of 3; the survivor count under setting [7] is 3 of 3; the survivor count (dose: 400.0 mg/kg/injection, schedule: Q01DX009 (ip), vehicle: Klucel (hydroxypropylcellulose) (HPC)) is reported as 2 of 3. Also, the T/C is, setting by setting: under setting [7], 133 % of control; (dose: 200.0 mg/kg/injection, schedule: Q01DX009 (ip), vehicle: Klucel (hydroxypropylcellulose) (HPC)) 133 % of control.

In the case of `Nc1c(Cl)cc(S(N)(=O)=O)cc1Cl`, the survivor count under setting [8] was 2 of 6.

Consider `COc1cc(C=Nc2ccc(-c3nc(C)sc3C)cc2)ccc1N(CCCl)CCCl`, for which the survivor count is 5 of 6 (dose: 50.0 mg/kg/injection, schedule: Q04DX003 (ip), vehicle: Klucel (hydroxypropylcellulose) (HPC)) and 0 of 6 under setting [9].

As for `CN(C)C(=O)c1cccc(NC(=O)Oc2ccccc2)c1`, under setting [8], the survivor count is 6 of 6.

On to `C=CCN1CSC(=S)N(CC=C)C1`, for which the survivor count is reported as 3 of 6 under setting [5] and 1 of 6 under setting [6].

For the compound `OCc1ccn2c1[C@@H](O)CC2`, the T/C is 147 % of control under setting [10] and 133 % of control under setting [11]. In addition, the survivor count under setting [12] is recorded as 6 of 6 and the survivor count under setting [13] is on record as 3 of 6.

Consider `FCc1nc2nc(Cl)c(Cl)nc2[nH]1`, for which the survivor count is, setting by setting: under setting [3], 6 of 6; (dose: 16.0 mg/kg/injection, schedule: Q01DX009 (ip), vehicle: saline) 2 of 6; under setting [2], 0 of 6; under setting [14], 0 of 6.

For the compound `O=C(Nc1cc(Cl)c(NC(=O)c2ccccc2)c(Cl)c1)c1ccccc1`, the survivor count (dose: 50.0 mg/kg/injection, schedule: Q01DX001 (ip), vehicle: saline with Tween-80) is given as 6 of 6.

With `CC(c1ccccc1)[n+]1ccccc1C1OCCO1` (configuration not stated), the survivor count (dose: 25.0 mg/kg/injection, schedule: Q04DX003 (ip), vehicle: saline) is reported as 4 of 6.

Take `c1cc2ccsc2cn1`: the survivor count under setting [15] is on record as 1 of 6.

`NC(COc1ccccc1)Cc1ccccc1` (configuration not stated): the survivor count was 0 of 6 under setting [2]; 0 of 6 (dose: 200.0 mg/kg/injection, schedule: Q04DX003 (ip), vehicle: suspension in saline); 0 of 6 under setting [14].

In the case of `CC(=O)Nc1ccc(C)c([N+](=O)[O-])c1`, the survivor count (dose: 400.0 mg/kg/injection, schedule: Q01DX009 (ip), vehicle: saline) was 4 of 6.

As for `N=c1ccn2c(n1)OC1C(OP(=O)(O)O)C(CO)OC12` (configuration not stated), for the setting “dose: 78.0 mg/kg/injection, schedule: Q04DX003 (ip), vehicle: saline”, the T/C was 136 % of control.

Take `ClC(Cl)(Cl)c1nc2nccnc2[nH]1`: the survivor count is 3 of 6 under setting [9] and 4 of 6 (dose: 200.0 mg/kg/injection, schedule: Q04DX003 (ip), vehicle: saline with Tween-80). In addition, the T/C is, setting by setting: under setting [15], 145 % of control; (dose: 150.0 mg/kg/injection, schedule: Q04DX003 (ip), vehicle: saline with Tween-80) 127 % of control.

As for `O=[N+]([O-])c1ccc(N2CCN=N2)cc1`, the survivor count under setting [12] is listed as 2 of 6 and the survivor count under setting [13] is reported as 0 of 6.

Turning to `BrCCCC[P+](c1ccccc1)(c1ccccc1)c1ccccc1`, the survivor count by setting is: under setting [10], 6 of 6; under setting [11], 0 of 6.

In the case of `O=C1C(Cl)=C(N2CC2)C(=O)C(Cl)=C1N1CC1`, under “dose: 1.25 mg/kg/injection, schedule: Q01DX009 (ip), vehicle: Klucel (hydroxypropylcellulose) (HPC)”, the T/C is 125 % of control. Besides, the survivor count runs as follows: (dose: 20.0 mg/kg/injection, schedule: Q01DX009 (ip), vehicle: Klucel (hydroxypropylcellulose) (HPC)) 1 of 6; (dose: 20.0 mg/kg/injection, schedule: Q01DX009 (ip), vehicle: saline) 4 of 6 and 6 of 6.

For `FC(F)(F)C1=N/C(=C2\N=C(C(F)(F)F)N=C2Cl)C(Cl)=N1`, the survivor count is listed as 2 of 6 under setting [4] and 3 of 6 (dose: 50.0 mg/kg/injection, schedule: Q04DX003 (ip), vehicle: saline with Tween-80).

Values taken from PubChem BioAssay AID328 (DTP/NCI, 2004).
